Reference: patent US8835458B2 (Hanmi Science Co., Ltd, priority 2010, dated 2014)

Columns and labels:
Hs27 fibroblasts = conditions: tested form: HCl
[1] = system: MDA-MB-231 breast cancer cell lines; test: Evaluation of inhibition on cell growth (MTS); conditions: read-out: MDA-MB-231 (GI50), 120 hours, tested form: HCl
Balb/c3t3 fibroblasts = conditions: tested form: HCl

A GI50 (Hs27 fibroblasts) of over 10 µM, a GI50 [1] of over 1000 nM and a GI50 (Balb/c3t3 fibroblasts) of over 10 µM were found for CN[C@@H](C)C(=O)N[C@H](C(=O)N1CCC[C@H](C(=O)Nc2cc3c(Nc4ccc(F)c(Cl)c4F)ncnc3cc2OC)C1)C(C)(C)C in this work.

Structures were worked out from names or drawings and are uncertain.
